The whole screen tested about 200,000 compounds, of which about 25 (0.01%) were called active. This list was built around the results that the source calls inconclusive (neither active nor inactive); the mix of calls is not that of the screen. Calls come from the whole dose curve; as a rule, active = well fitted inhibition curve with a large enough effect in the signal ratio, with a control signal flat (not every such curve was filed as active); inconclusive = small, poorly fitted or top-dose-only effect, or effect the other way, or a change in a side signal; inactive = flat fitted curve, though single readings scatter; the % refers to the signal ratio. Potencies beside an inconclusive call are fits to weak or partial responses and may not hold up.
test: qHTS Assay for Modulators of Lamin A Splicing; settings: HeLa LMNA splicing GFP/RFP minigene ratio, 48 h; ratio change, negative = inhibition: at 46.1 µM (top of the series) unless noted
Procedure, shortened: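 Read-out is the ratio of GFP to DsRed2 object intensity, acquired by 488 nm laser-scanning cytometry on HeLa lamin A-EGFP minigene reporter cells. Compound incubation 48 hrs at 37 °C in Opti-MEM with 2% FBS; DMSO 0.5% final.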
% is set by controls: 0 for no effect and ±100 for the full control effect; potency is the fitted concentration of half-maximal effect.

SMILES	ratio change, negative = inhibition	Potency
O=C(NC(=S)NCC1CCCO1)c1ccccc1 (configuration not stated)	inconclusive: -5.36%	–
CCC(c1nnnn1CCc1ccccc1)N(Cc1ccco1)Cc1cc2c(C)ccc(C)c2[nH]c1=O (configuration not stated)	–	inconclusive: 11.2 µM [activator, partial curve]
O=C(CSc1ncc(C(F)(F)F)cc1Cl)N1CCN(S(=O)(=O)c2ccccc2)CC1	inconclusive: 8.13%	–
C=CCNC(=O)c1onc(CSc2ccccc2)c1C(=O)O	inactive: -2.18% [at 0.0737 µM]	–
COc1ccc2cc(C(=O)NCc3ccc4c(c3)CCN4C(=O)c3ccc(C)cc3)[nH]c2c1	inconclusive: 2.09% [at 46 µM]	–
O=C(Nc1ccc(SC(F)F)cc1)C12CCC(CC1)C2	inactive	–
O=C(CCNc1ccc(Cc2ccncc2)cc1)c1cccc([N+](=O)[O-])c1	–	inconclusive: 35.5 µM [rising, partial curve]
Cc1cc(=O)[nH]c(N/N=C/c2ccccc2C(F)(F)F)n1	inconclusive: -15.1% [at 46 µM]	–
COc1ccc(CNC(=O)CN2C(=O)CCCc3ccccc32)cc1	inactive	–
Cc1cccc(C2c3[nH]c4ccccc4c3CCN2C(=O)c2cc3c([nH]c2=O)CCCC3)n1 (configuration not stated)	inconclusive: 2.17% [at 46 µM]	–
COc1ccc(-c2[nH]ncc2CNCCCSC)cc1F	inconclusive: -0.848% [at 46 µM]	–
Nc1ccccc1Sc1nc2ccccc2[nH]1	inconclusive: -35.7% [at 46 µM]	–
CC(C)(C)C(=O)Nc1ccc(C(=O)N/N=C/c2ccccc2OC(=O)c2ccc(Cl)cc2)cc1	–	inconclusive: 11.2 µM [falling, partial curve]
CCOC(=O)CNC(=O)/C=C/c1ccc2c(c1)OCO2	inactive	–
c1cc2c(cn1)cnc1cscc12	inconclusive: -2.75%	–
CS(=O)(=O)Nc1cccc(-c2cncnc2NCc2ccccc2)c1	inactive	–
C=CCn1c(=O)n(CCOC)c(=O)c2sc3ccccc3c21	inactive	–
CCN(C(=O)c1cc(S(=O)(=O)N2CCc3ccccc32)cn1C)c1cccc(C)c1	inactive	–
COc1cc(/C=N/Nc2ccc(C)cc2)cc(Br)c1O	inactive	–
Cc1ccc2c(=O)c(C(=O)c3ccc(F)cc3)cn(CC(=O)NCc3ccccc3Cl)c2n1	inactive	–
O=C(Nc1ccc(-c2nnc3n2CCCCC3)cc1)c1cc2ccccc2o1	inactive	–

SMILES	ratio change, negative = inhibition	Potency
CCCc1cc(C(=O)OC)c(NC(=O)c2cc(C)on2)s1	inactive	–
COc1cccc(/C=N/Nc2cc(-n3nc(C)cc3-c3ccccc3)ncn2)c1O	–	inconclusive: 11.2 µM [falling, partial curve]
CCN(CC)S(=O)(=O)c1ccc(C)c(NC(=O)Cn2c(=O)cnc3ccccc32)c1	–	inconclusive: 35.5 µM [fluorescent, single point]
O=C(/C=C/c1ccc(Cl)cc1Cl)N1CCN(c2ccc([N+](=O)[O-])c(N3CCOCC3)c2)CC1	inconclusive: -13.4%	–
COc1cc(NC(=O)NCCn2nnc3cc(S(=O)(=O)N(C)C)ccc32)cc(OC)c1	inactive	–
C/C(=N/N1CCN(Cc2cccc3ccccc23)CC1)c1cccnc1	inconclusive: 19.5% [at 46 µM]	–
CCOC(=O)c1[nH]n(-c2ccc(Cl)cc2)c(=O)c1C	inactive	–
Cc1ccc(CNC(=O)C2CCC(CNc3nc(=S)[nH]c4ccccc34)CC2)cc1 (configuration not stated)	inconclusive: 33% [at 46 µM]	–
O=C1c2ccccc2C(=O)N1CCCCN(C(=O)c1cc2ccccc2oc1=O)c1ccc(Cl)cc1	inactive	–
CC(c1ccccc1)n1c(SCC(=O)N2CC(=O)Nc3ccccc32)nc2ccccc2c1=O (configuration not stated)	inconclusive: -20.3%	–
Cc1nc(-c2c(-c3ccc(O)cc3O)noc2C(F)(F)F)cs1	–	inconclusive: 14.1 µM [falling, single point]
CC1=NN(c2ccc(Br)cc2)C(=O)/C1=C/c1cccs1	inactive	–
COc1ccc(CNC(=O)c2cc3c(=O)n(Cc4ccc(OC)cc4)ccc3nc2C)cc1	inconclusive: 20.3% [at 46 µM]	–
CC(=O)Nc1nc(NC(=O)/C=C/c2ccccc2)n(-c2ccccc2)n1	–	inconclusive: 35.5 µM [fluorescent, single point]
Cc1nc(N=C(N)N)nc2ccccc12	inconclusive: -45.4% [at 46 µM]	–
COc1ccc(-c2nc3ccccc3s2)cc1NC(=O)c1cccc(F)c1	inactive	–
COc1cccc(CNC(=O)c2ccc3nc(CCc4ccccc4)oc3c2)c1OC	inconclusive: -22.1% [at 46 µM]	–
COc1ccc2c(c1)C(=O)[C@H](O)[C@@H](c1ccc(OC)c(Br)c1)O2	inconclusive: -44.3%	–
O=[N+]([O-])/C(C(Cl)=C(Cl)Cl)=C(\Nc1ccc(F)cc1)n1cncn1	inconclusive: 19.1%	–
CCCCCCSc1nnc2[nH]c(=O)cc(N)n12	inactive	–
O=S1(=O)c2ccccc2N(Cc2ccc(F)cc2)c2ccccc21	inconclusive: 34.4% [at 46 µM]	–

SMILES	ratio change, negative = inhibition	Potency
O=C(Nc1nnc(SCC(=O)N2CCOCC2)s1)c1ccccc1	inconclusive: 5.61%	–
O=C1CC(N2CCSCC2)C(=O)N1c1cccc(Cl)c1 (configuration not stated)	inconclusive: 12.4% [at 46 µM]	–
CCCN1CCN(C(=S)Nc2sc(CC)cc2C(=O)OC)CC1	inactive	–
COCCCn1c(SCC(=O)c2ccccc2)nc2ccccc2c1=O	inactive: 10.1% [at 9.22 µM]	–
COC(=O)c1nnn(CC(=O)NC(=O)Nc2cccc(Cl)c2C)c1C(=O)OC	inconclusive: 15.7% [at 46 µM]	–
Cc1ccc(C(C(=O)NCC2CCCO2)N(Cc2ccccc2)C(=O)c2ccc(-c3ccccc3)[nH]2)o1 (configuration not stated)	inconclusive: -30.2%	–
O=C(CSc1nc(=O)n(Cc2ccccn2)c2c1CCC2)Nc1cccc(Cl)c1	inactive	–
COc1ccc(C(=O)c2sc3nc(-c4ccccc4)ccc3c2N)cc1	inactive	–
COc1ccc(NC(=O)Cn2ccn(-c3ccc(C)c(C)c3)c(=O)c2=O)cc1Cl	inconclusive: -2.03% [at 46 µM]	–
COC(=O)c1sccc1NC(=S)N1CCN(c2cccc(C)c2C)CC1	–	inconclusive: 35.5 µM [fluorescent, single point]
COc1cc2c(cc1OC)C(C)N(C(=O)c1cc3ccccc3o1)CC2 (configuration not stated)	inconclusive: -27.4%	–
CCc1ccc2oc(-c3cccc(NC(=O)c4cccnc4)c3)nc2c1	inconclusive: -7.47%	–
CCCc1noc2c1C(c1cc(Br)ccc1F)C(C#N)=C(N)N2 (configuration not stated)	inactive	–
CC(C)C(NC(=O)C(Cc1ccc(O)cc1)NC(=O)C(NC(=O)C(F)(F)F)C(C)C)C(=O)O (configuration not stated)	inactive	–
CCOc1ccc(C(=O)Nc2ccc(C(=O)OCc3cc(=O)n4c(C)csc4n3)cc2)cc1	–	inconclusive: 35.5 µM [cytotoxic, single point]
CCCc1cc(=O)oc2cc(C)c3c(C)coc3c12	inconclusive: 21.9%	–
COc1ccccc1OCCNCC(O)COc1cccc2[nH]c3ccccc3c12 (configuration not stated)	inconclusive: -27.9% [at 46 µM]	–
Cc1ccc(NC(=O)CN2C(=O)c3ccccc3Sc3ccc(C(=O)N4CCOCC4)cc32)cc1C	inactive	–
Oc1ccccc1Cn1c(-c2ccccc2O)nc2ccccc21	–	inconclusive: 20 µM [fluorescent, single point]
Cc1[nH]c2ccccc2c1C(c1ccncc1)N1CCN(c2ccccc2F)CC1 (configuration not stated)	inconclusive: -32.8%	–
O=c1n(-c2ccccc2)c(=O)n2n1CCCC2	inactive	–

Five records picked at random from those above:
SMILES	ratio change, negative = inhibition	Potency
COc1ccccc1OCCNCC(O)COc1cccc2[nH]c3ccccc3c12 (configuration not stated)	inconclusive: -27.9% [at 46 µM]	–
CCCc1cc(=O)oc2cc(C)c3c(C)coc3c12	inconclusive: 21.9%	–
COC(=O)c1sccc1NC(=S)N1CCN(c2cccc(C)c2C)CC1	–	inconclusive: 35.5 µM [fluorescent, single point]
COc1ccc(C(=O)c2sc3nc(-c4ccccc4)ccc3c2N)cc1	inactive	–
CCc1ccc2oc(-c3cccc(NC(=O)c4cccnc4)c3)nc2c1	inconclusive: -7.47%	–

(further entries)

SMILES	ratio change, negative = inhibition	Potency
CC(=O)c1c[nH]c2ccc(C)cc2c1=O	inconclusive: 5.21%	–
O=c1c(Cc2c(F)cccc2Cl)c(O)ccn1CCc1c[nH]c2ccccc12	inconclusive: -30.8% [at 46 µM]	–
O=c1cc(CSc2nnnn2-c2ccccc2)nc2sccn12	inactive	–
CCOc1ccc(NC(=O)c2c(NCc3cccs3)sc3c2CCCCC3)cc1	inconclusive: -17.2% [at 46 µM]	–
Cn1ccnc1SCC(=O)Nc1cccc2ccccc12	inactive	–
O=C(CC1C(=O)NCCN1Cc1cccc(Oc2ccccc2)c1)NCCc1ccncc1 (configuration not stated)	inconclusive: 17.5% [at 46 µM]	–
CC(C)Cn1c(C(C)C)nc([N+](=O)[O-])c1S(=O)(=O)c1ccc(F)cc1	–	inconclusive: 35.5 µM [cytotoxic, single point]
Cc1cc(C)nc(Nc2nc3ccccc3[nH]2)n1	inactive	–
O=C(c1cccc(S(=O)(=O)N2CCc3ccccc3C2)c1)N1CCN(c2ccc(O)cc2)CC1	inconclusive: -42.3%	–
O=c1c2c3c(sc2n(CCN2CCOCC2)c(=O)n1Cc1ccco1)CCCCC3	inconclusive: 4.99%	–
O=c1cc(CO)[nH]cc1OCc1ccccc1	inconclusive: 20.2% [at 46 µM]	–
CCN(CC)S(=O)(=O)c1ccc(Oc2cccc(C(C)=O)c2)nc1	inconclusive: -13.1%	–
COCCNC(=O)NC(=O)CSc1nc(C)c(C)c(C)n1	inconclusive: -8.79% [at 46 µM]	–
Cc1nn(Cc2ccccc2)c(Cl)c1C(=O)NCCc1ccc(Cl)cc1	–	inconclusive: 35.5 µM [fluorescent, single point]
O=C(NCc1cccnc1)c1c[nH]c2cc3c(cc2c1=O)OCCO3	–	inconclusive: 3.16 µM [fluorescent, full curve]
CCCN(/C=N/c1sc2c(c1C#N)CCCCC2)CCC	inactive	–
COc1nccnc1NS(=O)(=O)c1ccc(NC(=S)NC(=O)c2ccc(F)c(F)c2)cc1	inconclusive: -4.47%	–
Cn1c(CSCc2ccc(Cl)c(Cl)c2)n[nH]c1=S	inconclusive: 1.23%	–
CCN(CC)c1ccc(/C=N/NS(=O)(=O)c2cccc([N+](=O)[O-])c2)cc1	inactive	–

Three entries out of the list, ordered by length of the SMILES, descending.
SMILES	ratio change, negative = inhibition	Potency
O=C(c1cccc(S(=O)(=O)N2CCc3ccccc3C2)c1)N1CCN(c2ccc(O)cc2)CC1	inconclusive: -42.3%	–
CC(C)Cn1c(C(C)C)nc([N+](=O)[O-])c1S(=O)(=O)c1ccc(F)cc1	–	inconclusive: 35.5 µM [cytotoxic, single point]
Cn1c(CSCc2ccc(Cl)c(Cl)c2)n[nH]c1=S	inconclusive: 1.23%	–

Source: PubChem BioAssay AID1487 (National Center for Advancing Translational Sciences (NCATS), 2009)
